First the molecules themselves.
B1: SREK1 (protein, UniProt Q8WXA9 1-508, looked up)
Splicing regulatory …: MTSLMPGAGLLPIPTPNPLTTLGVSLSSLGAIPAAALDPNIATLGEIPQPPLMGNVDPSKIDEIRRTVYVGNLNSQTTTADQLLEFFKQVGEVKFVRMAGDETQPTRFAFVEFADQNSVPRALAFNGVMFGDRPLKINHSNNAIVKPPEMTPQAAAKELEEVMKRVREAQSFISAAIEPESGKSNERKGGRSRSHTRSKSRSSSKSHSRRKRSQSKHRSRSHNRSRSRQKDRRRSKSPHKKRSKSRERRKSRSRSHSRDKRKDTREKIKEKERVKEKDREKEREREKEREKEKERGKNKDRDKEREKDREKDKEKDREREREKEHEKDRDKEKEKEQDKEKEREKDRSKEIDEKRKKDKKSRTPPRSYNASRRSRSSSRERRRRRSRSSSRSPRTSKTIKRKSSRSPSPRSRNKKDKKREKERDHISERRERERSTSMRKSSNDRDGKEKLEKNSTSLKEKEHNKEPDSSVSKEVDDKDAPRTEENKIQHNGNCQLNEENLSTKTEAV
B2: RPS10P5 (protein, UniProt Q9NQ39 1-176, looked up)
Putative ribosomal protein …: MLMPKKNRIAIHELLFKEGVMVAKKDVHMPKHPELADKNVPNLHVMKAMQSLKSRGCVKEQFAWRHFYWYLTNEGSQYLRDYLHLPPEIVPATLHLPPEIVPATLHRSRPETGRPRPKGLEGKRPARLTRREADRDTYRRCSVPPGADKKAEAGAGSATEFQFRGRCGRGRGQPPQ
B3: RBM27 (protein, UniProt Q9P2N5 1-1060, looked up)
RNA-binding protein 27: MLIEDVDALKSWLAKLLEPICDADPSALANYVVALVKKDKPEKELKAFCADQLDVFLQKETSGFVDKLFESLYTKNYLPLLEPVKPEPKPLVQEKEEIKEEVFQEPAEEERDGRKKKYPSPQKTRSESSERRTREKKREDGKWRDYDRYYERNELYREKYDWRRGRSKSRSKSRGLSRSRSRSRGRSKDRDPNRNVEHRERSKFKSERNDLESSYVPVSAPPPNSSEQYSSGAQSIPSTVTVIAPAHHSENTTESWSNYYNNHSSSNSFGRNLPPKRRCRDYDERGFCVLGDLCQFDHGNDPLVVDEVALPSMIPFPPPPPGLPPPPPPGMLMPPMPGPGPGPGPGPGPGPGPGPGPGHSMRLPVPQGHGQPPPSVVLPIPRPPITQSSLINSRDQPGTSAVPNLASVGTRLPPPLPQNLLYTVSERQPMYSREHGAAASERLQLGTPPPLLAARLVPPRNLMGSSIGYHTSVSSPTPLVPDTYEPDGYNPEAPSITSSGRSQYRQFFSRTQTQRPNLIGLTSGDMDVNPRAANIVIQTEPPVPVSINSNITRVVLEPDSRKRAMSGLEGPLTKKPWLGKQGNNNQNKPGFLRKNQYTNTKLEVKKIPQELNNITKLNEHFSKFGTIVNIQVAFKGDPEAALIQYLTNEEARKAISSTEAVLNNRFIRVLWHRENNEQPTLQSSAQLLLQQQQTLSHLSQQHHHLPQHLHQQQVLVAQSAPSTVHGGIQKMMSKPQTSGAYVLNKVPVKHRLGHAGGNQSDASHLLNQSGGAGEDCQIFSTPGHPKMIYSSSNLKTPSKLCSGSKSHDVQEVLKKKQEAMKLQQDMRKKRQEVLEKQIECQKMLISKLEKNKNMKPEERANIMKTLKELGEKISQLKDELKTSSAVSTPSKVKTKTEAQKELLDTELDLHKRLSSGEDTTELRKKLSQLQVEAARLGILPVGRGKTMSSQGRGRGRGRGGRGRGSLNHMVVDHRPKALTVGGFIEEEKEDLLQHFSTANQGPKFKDRRLQISWHKPKVPSISTETEEEEVKEEETETSDLFLPDDDDEDEDEYESRSWRR
B4: ERLIN1 (protein, UniProt O75477 1-348, looked up)
Erlin-1: MNMTQARVLVAAVVGLVAVLLYASIHKIEEGHLAVYYRGGALLTSPSGPGYHIMLPFITTFRSVQTTLQTDEVKNVPCGTSGGVMIYIDRIEVVNMLAPYAVFDIVRNYTADYDKTLIFNKIHHELNQFCSAHTLQEVYIELFDQIDENLKQALQKDLNLMAPGLTIQAVRVTKPKIPEAIRRNFELMEAEKTKLLIAAQKQKVVEKEAETERKKAVIEAEKIAQVAKIRFQQKVMEKETEKRISEIEDAAFLAREKAKADAEYYAAHKYATSNKHKLTPEYLELKKYQAIASNSKIYFGSNIPNMFVDSSCALKYSDIRTGRESSLPSKEALEPSGENVIQNKESTG

One data set deals with mSWI/SNF complexes. The data set is described as follows: mSWI/SNF complex purification with HA-tagged baits and mass spectrometry (peptide counts). The arrangement: species or system human. The note with it: 293_HA-BRD7 bait purification, mass spectrometry; total peptide count per identified protein.
In turn, B1 returned a Total of 1.
The same measure, in the same setting: the result for B2 reads 1; that for B3, 1.
B4 showed a Total of 1.

Still in this data set, the particulars now being: 293_HA-BRD7 bait purification, mass spectrometry; unique peptide count per identified protein.
On to B1, for which the Unique is listed as 1.
Same read-out and setting: with B2 the figure was 1; with B3, 1; with B4, 1.

For the origin of these results see US12729225B2, “Non-canonical SWI/SNF complex and uses thereof” (Dana-Farber Cancer Institute, Inc., priority 2018, dated 2026).
